Reference: US20220296610A1, “COMPOSITIONS AND METHODS FOR TREATMENT OF INFECTION AND NOVEL COSMECEUTICAL PREPARATIONS” (priority 2017, published 2022)
At least one structure is not confirmed: it was looked up by name or label, or the drawing left a doubt.

How the values were obtained:
[1] = tested on: Sweat gland adenocarcinoma; experiment: Intratumoral treatment of canine cancer patient, sweat gland adenocarcinoma; assay type: in vivo, dog; settings: Patient #4
Protocol: (§1) A study was performed using NVX-207 on a canine squamous cell carcinoma of the nasal plane. […] Histology was confirmed by biopsy before treatment. Prior to each treatment, the dog was physically examined and routine blood counts and serum chemistry analyses were performed. Tumor measurements were obtained using callipers at each treatment. Tumor size was determined by the longest diameter of the target lesion or by calculating the mean of the longest diameters of the lesion treated. Tumor response was classified as stable (less than 50% change), partial—(decrease by >50%) or as a complete response if no palpable or visible evidence of tumor was available. Intralesional treatment of the patient comprised local infiltration of the local tumor, including 1 cm of the surrounding tissue, with NVX-207 in combination with cisplatin. […] Tumor recurrence was observed 18 months later. […] No further complications were observed.
(§2) Patients 1, 2, and 3 correspond to the dogs described above with squamous, soft tissue, and mammary carcinoma, respectively. Tumor size and tumor responses were determined as in described above. Intralesional treatment of the patients comprised local infiltration of the local tumor including 1 cm of the surrounding tissue—if applicable—with NVX-207 alone (for patients #2-#4) or in combination with cisplatin (patient #1, see also FIG. 3). […]

[2] = tested on: Mammary carcinoma; experiment: Intratumoral treatment of canine cancer patient, mammary carcinoma; assay type: in vivo, dog; settings: Patient #3
Protocol: as §1, §2

[3] = tested on: early stage bacterial pneumonia; experiment: Treatment of bacterial pneumonia (Example 12); assay type: in vivo; settings: capsules comprising NVX-207 twice a day for two weeks
[4] = tested on: minor skin bacterial infections; experiment: Treatment of skin infection (Example 8); assay type: in vivo; settings: topical ointment comprising NVX-207 twice a day for one week
[5] = tested on: oral abscesses; experiment: Treatment of oral abscesses (Example 11); assay type: in vivo; settings: rinse with solution comprising NVX-207 twice a day for one month

C=C(C)[C@@H]1CC[C@]2(C(=O)OCC(N)(CO)CO)CC[C@]3(C)[C@H](CC[C@@H]4[C@@]5(C)CC[C@H](OC(C)=O)C(C)(C)[C@@H]5CC[C@]43C)[C@@H]12 [NVX-207, 3-O-acetylbetulinic acid-2-amino-3-hydroxy-2-hydroxymethylpropyl ester]
OS, overall survival time [1]: alive | OS, overall survival time [2]: alive | improvement compared to vehicle [3]: significant, and more rapid, improvement | improvement compared to vehicle [4]: significant, and more rapid, improvement | improvement in the infections compared to vehicle [5]: significant, and more rapid, improvement
